{"source": "the supplement of paper PMC10849652", "note": "This is one part of the list."}
{"compound": "O=C(CCCCCCC(=O)Nc1ccccc1)NO [vorinostat]", "assay": "log2 fold change, soluble protein after heating vs DMSO (PISA); higher = thermal stabilisation; K562 lysate, 10 uM; active = over 0.2 and 3.5 SD of the protein, either way, in both replicates (recomputed)", "outline": "(§1)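 K562 pellets were dounce-homogenised in PBS pH 7.4 containing 1 mM MgCl2, and the crude extract, at 1 mg/mL protein, was exposed to 10 μM compound for 30 min. Aliquots were heated for 3 min across 48°C-58°C, pooled, brought to 0.5% NP-40 at 4°C and spun at 21,000xg for 90 min, with the supernatant taken as soluble protein. TMTpro 16plex LC-MS/MS with equalised channel sums quantified that protein. Values are log-two fold changes in thermal stability relative to solvent controls, taken from duplicates.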"}
{"target": "TPM4 isoform 2 (UniProt P67936)", "log2 fold change": "inactive: 0.082"}
{"target": "TMX3 (UniProt Q96JJ7)", "log2 fold change": "inactive: 0.128"}
{"target": "TOMM20 (UniProt Q15388)", "log2 fold change": "inactive: 0.155"}
{"target": "TPM1 (UniProt H7BYY1)", "log2 fold change": "inactive: 0.136"}
{"target": "TP53RK (UniProt Q96S44)", "log2 fold change": "inactive: 0.049"}
{"target": "TMEM205 (UniProt Q6UW68)", "log2 fold change": "inactive: 0.045"}
{"target": "TOR1AIP1 (UniProt Q5JTV8)", "log2 fold change": "inactive: 0.194"}
{"target": "TMEM68 (UniProt Q96MH6)", "log2 fold change": "inactive: 0.07"}
{"target": "TPCN1 isoform 3 (UniProt Q9ULQ1)", "log2 fold change": "inactive: 0.069"}
{"target": "TPM3 isoform 2 (UniProt P06753)", "log2 fold change": "inactive: 0.048"}
{"target": "TPRG1L (UniProt Q5T0D9)", "log2 fold change": "inactive: 0.132"}
{"target": "TMOD2 (UniProt Q9NZR1)", "log2 fold change": "inactive: 0.084"}
{"target": "TMEM43 (UniProt Q9BTV4)", "log2 fold change": "inactive: 0.138"}
{"target": "TNRC6A (UniProt Q8NDV7)", "log2 fold change": "inactive: 0.165"}
{"target": "TMEM38B (UniProt Q9NVV0)", "log2 fold change": "inactive: 0.116"}
{"target": "TOMM7 (UniProt Q9P0U1)", "log2 fold change": "inactive: 0.024"}
{"target": "TMEM41A (UniProt Q96HV5)", "log2 fold change": "inactive: 0.08"}
{"target": "TPST2 (UniProt O60704)", "log2 fold change": "inactive: 0.132"}
{"target": "TPD52L1 (UniProt Q16890)", "log2 fold change": "inactive: 0.185"}
{"target": "TRABD (UniProt Q9H4I3)", "log2 fold change": "inactive: -0.047"}
{"target": "TMEM87B (UniProt Q96K49)", "log2 fold change": "inactive: 0.018"}
{"target": "TPX2 (UniProt Q9ULW0)", "log2 fold change": "active: -0.498"}
{"target": "TNKS1BP1 (UniProt Q9C0C2)", "log2 fold change": "inactive: -0.018"}
{"target": "TMEM219 (UniProt Q86XT9)", "log2 fold change": "inactive: 0.059"}
{"target": "TMEM63B (UniProt Q5T3F8)", "log2 fold change": "inactive: 0.143"}
{"target": "TP53BP2 isoform 3 (UniProt Q13625)", "log2 fold change": "inactive: -0.116"}
{"target": "TNNI3K isoform 1 (UniProt Q59H18)", "log2 fold change": "inactive: -0.483"}
{"target": "TMEM259 (UniProt Q4ZIN3)", "log2 fold change": "inactive: -0.102"}
{"target": "TMEM35B (UniProt Q8NCS4)", "log2 fold change": "inactive: 0.092"}
{"target": "TMUB2 (UniProt Q71RG4)", "log2 fold change": "inactive: 0.066"}
{"target": "TMEM263 (UniProt Q8WUH6)", "log2 fold change": "inactive: 0.289"}
{"target": "TNIP1 (UniProt Q15025)", "log2 fold change": "inactive: 0.093"}
{"target": "TOLLIP (UniProt Q9H0E2)", "log2 fold change": "inactive: -0.193"}
{"target": "TMEM9 (UniProt Q9P0T7)", "log2 fold change": "inactive: 0.043"}
{"target": "TMX4 (UniProt Q9H1E5)", "log2 fold change": "inactive: 0.079"}
{"target": "TOE1 (UniProt Q96GM8)", "log2 fold change": "active: -0.359"}
{"target": "TMEM214 (UniProt Q6NUQ4)", "log2 fold change": "inactive: -0.04"}
{"target": "TMEM9B (UniProt Q9NQ34)", "log2 fold change": "inactive: -0.135"}
{"target": "TOMM34 (UniProt Q15785)", "log2 fold change": "inactive: -0.179"}
{"target": "TMEM70 (UniProt Q9BUB7)", "log2 fold change": "inactive: 0.122"}
{"compound": "O=C(O)c1ccc2c(c1)nc(Nc1cccc(Cl)c1)c1ccncc12 [silmitasertib]", "assay": "log2 fold change, soluble protein after heating vs DMSO (PISA); higher = thermal stabilisation; K562 lysate, 10 uM; active = over 0.2 and 3.5 SD of the protein, either way, in both replicates (recomputed)", "outline": "as §1"}
{"target": "TPM4 isoform 2 (UniProt P67936)", "log2 fold change": "inactive: -0.016"}
{"target": "TMX3 (UniProt Q96JJ7)", "log2 fold change": "inactive: -0.009"}
{"target": "TOMM20 (UniProt Q15388)", "log2 fold change": "inactive: 0.002"}
{"target": "TPM1 (UniProt H7BYY1)", "log2 fold change": "inactive: -0.024"}
{"target": "TP53RK (UniProt Q96S44)", "log2 fold change": "inactive: -0.19"}
{"target": "TMEM205 (UniProt Q6UW68)", "log2 fold change": "inactive: -0.004"}
{"target": "TOR1AIP1 (UniProt Q5JTV8)", "log2 fold change": "inactive: 0.069"}
{"target": "TMEM68 (UniProt Q96MH6)", "log2 fold change": "inactive: -0.031"}
{"target": "TPCN1 isoform 3 (UniProt Q9ULQ1)", "log2 fold change": "inactive: -0.035"}
{"target": "TPM3 isoform 2 (UniProt P06753)", "log2 fold change": "inactive: 0.011"}
{"target": "TPRG1L (UniProt Q5T0D9)", "log2 fold change": "inactive: -0.026"}
{"target": "TMOD2 (UniProt Q9NZR1)", "log2 fold change": "inactive: 0.044"}
{"target": "TMEM43 (UniProt Q9BTV4)", "log2 fold change": "inactive: -0.009"}
{"target": "TNRC6A (UniProt Q8NDV7)", "log2 fold change": "inactive: 0.001"}
{"target": "TMEM38B (UniProt Q9NVV0)", "log2 fold change": "inactive: 0.014"}
{"target": "TOMM7 (UniProt Q9P0U1)", "log2 fold change": "inactive: -0.018"}
{"target": "TMEM41A (UniProt Q96HV5)", "log2 fold change": "inactive: -0.034"}
{"target": "TPST2 (UniProt O60704)", "log2 fold change": "inactive: -0.03"}
{"target": "TPD52L1 (UniProt Q16890)", "log2 fold change": "inactive: -0.049"}
{"target": "TRABD (UniProt Q9H4I3)", "log2 fold change": "inactive: 0.114"}
{"target": "TMEM87B (UniProt Q96K49)", "log2 fold change": "inactive: 0.026"}
{"target": "TPX2 (UniProt Q9ULW0)", "log2 fold change": "inactive: -0.04"}
{"target": "TNKS1BP1 (UniProt Q9C0C2)", "log2 fold change": "inactive: 0.009"}
{"target": "TMEM219 (UniProt Q86XT9)", "log2 fold change": "inactive: 0.04"}
{"target": "TMEM63B (UniProt Q5T3F8)", "log2 fold change": "inactive: 0.009"}
{"target": "TP53BP2 isoform 3 (UniProt Q13625)", "log2 fold change": "inactive: -0.003"}
{"target": "TNNI3K isoform 1 (UniProt Q59H18)", "log2 fold change": "inactive: -0.06"}
{"target": "TMEM259 (UniProt Q4ZIN3)", "log2 fold change": "inactive: 0.154"}
{"target": "TMEM35B (UniProt Q8NCS4)", "log2 fold change": "inactive: 0.225"}
{"target": "TMUB2 (UniProt Q71RG4)", "log2 fold change": "inactive: 0.04"}
{"target": "TMEM263 (UniProt Q8WUH6)", "log2 fold change": "inactive: -0.15"}
{"target": "TNIP1 (UniProt Q15025)", "log2 fold change": "inactive: -0.045"}
{"target": "TOLLIP (UniProt Q9H0E2)", "log2 fold change": "inactive: 0.045"}
{"target": "TMEM9 (UniProt Q9P0T7)", "log2 fold change": "inactive: 0.116"}
{"target": "TMX4 (UniProt Q9H1E5)", "log2 fold change": "inactive: -0.044"}
{"target": "TOE1 (UniProt Q96GM8)", "log2 fold change": "inactive: 0.041"}
{"target": "TMEM214 (UniProt Q6NUQ4)", "log2 fold change": "inactive: 0.081"}
{"target": "TMEM9B (UniProt Q9NQ34)", "log2 fold change": "inactive: 0.038"}
{"target": "TOMM34 (UniProt Q15785)", "log2 fold change": "inactive: 0.052"}
{"target": "TMEM70 (UniProt Q9BUB7)", "log2 fold change": "inactive: 0.017"}
